{
  "source": "paper PMC4741457",
  "about": "“Structural basis for the indispensable role of a unique zinc finger motif in LNX2 ubiquitination” (Oncotarget, 2015)",
  "target": "Zn-RING-Zn domain of LNX2 (aa 20-147) Lys109Ala (human) (UniProt Q8N448)",
  "assay": "SEC; calibrated gel-filtration column (Superdex 75 or Superdex 200), each protein run alone; both purified",
  "note": "No constants are given. Whether binding was seen depends on the method and setting.",
  "data": [
    {"binder": "Zn-RING-Zn domain of LNX2 (aa 20-147) Lys109Ala (domain or fragment, UniProt Q8N448 20-147) NPLCFECGQQHWTRENHLYNYQNEVDDDLVCHICLQPLLQPLDTPCGHTFCYKCLRNFLQEKDFCPLDRKRLHFKLCKKSSILVHKLLDALLVLCPFSSVCKDVMQRCDLEAHLKNRCPGASHRRVAL", "values": [
      {"measurement": "binding", "value": "no binding"}
    ]}
  ]
}
